Results on one molecule are retold here after PMC6321462.

These are yes or no findings as the source states them, for the method shown. Binding seen in cells or lysates may run through a third protein. Some entries that bind do so weakly or less than the wild type. Sequences can lack the tags named with a protein.

This assay concerns the target DRR1 wt, untagged (murine, expressed in HEK-293 cells) (mouse) (UniProt Q78TU8). Description: cross-linking; HEK-293 cells expressing untagged DRR1 proteins incubated with 200 µM BMB (cysteine-cysteine crosslinker) or DMSO, 2 h at 4 °C in PBS with 1 mM EDTA; SDS lysates, Western blot. A general note: A western blot detects proteins with antibodies after separation by electrophoresis.

B1: DRR1 wt, untagged (murine, expressed in HEK-293 cells) (protein, UniProt Q78TU8 1-144)
chain: MYSEIQRERADIEGLMARPEYREWNSELIKPKKLLNPVKASRSHQELHRELLMNHKRGLGMDSKPELQRVLEHRRRNQLIKKKEEELEAKRMQCPFKQELLRRQQRLNQLENPPQRDEDHAPEFIKVRENLRRITTLTSEERAL
With B1, the binding entry is “binds”.
